Values from PubChem BioAssay AID1508597 (Cure First, 2020)

Aim: 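Survival screen with siRNA in ovarian cancer cells derived from patients, with or without rucaparib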 (primary screen)
Cell system: human ovarian carcinoma lines grown from tumours: OCI-P5x (papillary serous) and OCI-C5x (clear cell)
Reagents: siRNA pool against human genes, 1.25 pmol siRNA per well
Time to read-out: 72 h or 96 h, depending on the cell culture
Treatment: rucaparib 20 µM (about IC30) or vehicle, present until read-out
Rucaparib or vehicle: Rucaparib
Cell line: OCI-C5x (clear cell)
Measurement: 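Luminescent ATP-based viability assay read 72 or 96 h after transfection, depending on culture, given as normalised percent viability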
Direction: viability, normalised: higher = more viable cells remaining
Hit rule: 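a well counts as a hit if its normalised viability is under 80 percent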
Meaning of the calls: active = viability under 80%; inactive = viability 80% or more
Shown is a random part of the about 2,100 reagents, under one of the conditions tested. 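Calls flag viability under 80% in either arm, not effects specific to rucaparib; the reference for percent is not stated.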 No sequences are given here. Not stated in the record: the 100% reference.

FOXF2 (forkhead box F2), technical replicate 1 gave viability, normalised (%) = 44.1; active.
FOXF2 (forkhead box F2), technical replicate 2 gave viability, normalised (%) = 58.4; active.
FOXF2 (forkhead box F2), technical replicate 3 gave viability, normalised (%) = 54.2; active.
ENPP5, technical replicate 1 scored viability, normalised (%) = 34.2; active.
With ENPP5, technical replicate 2, the values are viability, normalised (%) = 40.5; active.
With ENPP5, technical replicate 3 the deposit lists viability, normalised (%) = 28.9; active.
With PRMT6 (protein arginine methyltransferase 6), technical replicate 1, the values are viability, normalised (%) = 57.7; active.
PRMT6 (protein arginine methyltransferase 6), technical replicate 2 showed viability, normalised (%) = 45.2; active.
For PRMT6 (protein arginine methyltransferase 6), technical replicate 3 the deposit lists viability, normalised (%) = 42.7; active.

A run of entries taken from the entries so far, as a working copy:
ENPP5, technical replicate 3 — viability, normalised (%) = 28.9; call = active
PRMT6 (protein arginine methyltransferase 6), technical replicate 1 — viability, normalised (%) = 57.7; call = active

Additional reagents:
For MLKL (mixed lineage kinase domain like pseudokinase), technical replicate 1, the entry reads viability, normalised (%) = 54.6; active.
MLKL (mixed lineage kinase domain like pseudokinase), technical replicate 2 gave viability, normalised (%) = 79.6; active.
MLKL (mixed lineage kinase domain like pseudokinase), technical replicate 3 showed viability, normalised (%) = 75.4; active.
PARP16 (poly(ADP-ribose) polymerase family member 16), technical replicate 1 scored viability, normalised (%) = 45.6; active.
PARP16 (poly(ADP-ribose) polymerase family member 16), technical replicate 2 showed viability, normalised (%) = 38; active.
PARP16 (poly(ADP-ribose) polymerase family member 16), technical replicate 3 showed viability, normalised (%) = 39.1; active.
For NRXN1 (neurexin 1), technical replicate 1 the deposit lists viability, normalised (%) = 62; active.
NRXN1 (neurexin 1), technical replicate 2 showed viability, normalised (%) = 54.4; active.
With NRXN1 (neurexin 1), technical replicate 3 the deposit lists viability, normalised (%) = 46.5; active.
NR1H3 (nuclear receptor subfamily 1 group H member 3), technical replicate 1 gave viability, normalised (%) = 42.5; active.
With NR1H3 (nuclear receptor subfamily 1 group H member 3), technical replicate 2, the entry reads viability, normalised (%) = 66; active.
With NR1H3 (nuclear receptor subfamily 1 group H member 3), technical replicate 3, the values are viability, normalised (%) = 47.7; active.
